Measured values taken from patent US20040038212A1.
Results are given in words; binding and its absence hold for the method and conditions named. Some results given as binding are weak or reduced against the parent protein; the word gives no strength.

Protein sequences, listed by entry. Tags and fused reporters are not part of them. Lines headed by an entry give the natural chain unless they say otherwise; changes in a name come on top.
UniProt Q9UQF2: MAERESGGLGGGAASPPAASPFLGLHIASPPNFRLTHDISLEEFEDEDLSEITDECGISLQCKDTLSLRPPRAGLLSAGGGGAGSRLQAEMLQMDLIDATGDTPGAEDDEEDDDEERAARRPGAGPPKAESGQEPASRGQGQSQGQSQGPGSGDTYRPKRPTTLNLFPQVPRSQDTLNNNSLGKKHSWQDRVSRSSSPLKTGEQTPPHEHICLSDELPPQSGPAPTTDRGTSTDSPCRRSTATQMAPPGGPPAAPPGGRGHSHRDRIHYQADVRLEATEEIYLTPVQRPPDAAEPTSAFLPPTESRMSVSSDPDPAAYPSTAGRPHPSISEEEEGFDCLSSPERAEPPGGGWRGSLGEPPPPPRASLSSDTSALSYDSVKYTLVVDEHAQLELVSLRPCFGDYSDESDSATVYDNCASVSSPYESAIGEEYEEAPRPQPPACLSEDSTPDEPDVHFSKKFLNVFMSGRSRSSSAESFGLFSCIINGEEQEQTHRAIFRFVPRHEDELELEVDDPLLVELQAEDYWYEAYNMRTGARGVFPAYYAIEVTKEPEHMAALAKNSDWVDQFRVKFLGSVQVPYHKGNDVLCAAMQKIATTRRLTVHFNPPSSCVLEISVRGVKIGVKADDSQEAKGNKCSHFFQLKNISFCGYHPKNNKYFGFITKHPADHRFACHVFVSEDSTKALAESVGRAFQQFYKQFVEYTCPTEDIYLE
UniProt P46100: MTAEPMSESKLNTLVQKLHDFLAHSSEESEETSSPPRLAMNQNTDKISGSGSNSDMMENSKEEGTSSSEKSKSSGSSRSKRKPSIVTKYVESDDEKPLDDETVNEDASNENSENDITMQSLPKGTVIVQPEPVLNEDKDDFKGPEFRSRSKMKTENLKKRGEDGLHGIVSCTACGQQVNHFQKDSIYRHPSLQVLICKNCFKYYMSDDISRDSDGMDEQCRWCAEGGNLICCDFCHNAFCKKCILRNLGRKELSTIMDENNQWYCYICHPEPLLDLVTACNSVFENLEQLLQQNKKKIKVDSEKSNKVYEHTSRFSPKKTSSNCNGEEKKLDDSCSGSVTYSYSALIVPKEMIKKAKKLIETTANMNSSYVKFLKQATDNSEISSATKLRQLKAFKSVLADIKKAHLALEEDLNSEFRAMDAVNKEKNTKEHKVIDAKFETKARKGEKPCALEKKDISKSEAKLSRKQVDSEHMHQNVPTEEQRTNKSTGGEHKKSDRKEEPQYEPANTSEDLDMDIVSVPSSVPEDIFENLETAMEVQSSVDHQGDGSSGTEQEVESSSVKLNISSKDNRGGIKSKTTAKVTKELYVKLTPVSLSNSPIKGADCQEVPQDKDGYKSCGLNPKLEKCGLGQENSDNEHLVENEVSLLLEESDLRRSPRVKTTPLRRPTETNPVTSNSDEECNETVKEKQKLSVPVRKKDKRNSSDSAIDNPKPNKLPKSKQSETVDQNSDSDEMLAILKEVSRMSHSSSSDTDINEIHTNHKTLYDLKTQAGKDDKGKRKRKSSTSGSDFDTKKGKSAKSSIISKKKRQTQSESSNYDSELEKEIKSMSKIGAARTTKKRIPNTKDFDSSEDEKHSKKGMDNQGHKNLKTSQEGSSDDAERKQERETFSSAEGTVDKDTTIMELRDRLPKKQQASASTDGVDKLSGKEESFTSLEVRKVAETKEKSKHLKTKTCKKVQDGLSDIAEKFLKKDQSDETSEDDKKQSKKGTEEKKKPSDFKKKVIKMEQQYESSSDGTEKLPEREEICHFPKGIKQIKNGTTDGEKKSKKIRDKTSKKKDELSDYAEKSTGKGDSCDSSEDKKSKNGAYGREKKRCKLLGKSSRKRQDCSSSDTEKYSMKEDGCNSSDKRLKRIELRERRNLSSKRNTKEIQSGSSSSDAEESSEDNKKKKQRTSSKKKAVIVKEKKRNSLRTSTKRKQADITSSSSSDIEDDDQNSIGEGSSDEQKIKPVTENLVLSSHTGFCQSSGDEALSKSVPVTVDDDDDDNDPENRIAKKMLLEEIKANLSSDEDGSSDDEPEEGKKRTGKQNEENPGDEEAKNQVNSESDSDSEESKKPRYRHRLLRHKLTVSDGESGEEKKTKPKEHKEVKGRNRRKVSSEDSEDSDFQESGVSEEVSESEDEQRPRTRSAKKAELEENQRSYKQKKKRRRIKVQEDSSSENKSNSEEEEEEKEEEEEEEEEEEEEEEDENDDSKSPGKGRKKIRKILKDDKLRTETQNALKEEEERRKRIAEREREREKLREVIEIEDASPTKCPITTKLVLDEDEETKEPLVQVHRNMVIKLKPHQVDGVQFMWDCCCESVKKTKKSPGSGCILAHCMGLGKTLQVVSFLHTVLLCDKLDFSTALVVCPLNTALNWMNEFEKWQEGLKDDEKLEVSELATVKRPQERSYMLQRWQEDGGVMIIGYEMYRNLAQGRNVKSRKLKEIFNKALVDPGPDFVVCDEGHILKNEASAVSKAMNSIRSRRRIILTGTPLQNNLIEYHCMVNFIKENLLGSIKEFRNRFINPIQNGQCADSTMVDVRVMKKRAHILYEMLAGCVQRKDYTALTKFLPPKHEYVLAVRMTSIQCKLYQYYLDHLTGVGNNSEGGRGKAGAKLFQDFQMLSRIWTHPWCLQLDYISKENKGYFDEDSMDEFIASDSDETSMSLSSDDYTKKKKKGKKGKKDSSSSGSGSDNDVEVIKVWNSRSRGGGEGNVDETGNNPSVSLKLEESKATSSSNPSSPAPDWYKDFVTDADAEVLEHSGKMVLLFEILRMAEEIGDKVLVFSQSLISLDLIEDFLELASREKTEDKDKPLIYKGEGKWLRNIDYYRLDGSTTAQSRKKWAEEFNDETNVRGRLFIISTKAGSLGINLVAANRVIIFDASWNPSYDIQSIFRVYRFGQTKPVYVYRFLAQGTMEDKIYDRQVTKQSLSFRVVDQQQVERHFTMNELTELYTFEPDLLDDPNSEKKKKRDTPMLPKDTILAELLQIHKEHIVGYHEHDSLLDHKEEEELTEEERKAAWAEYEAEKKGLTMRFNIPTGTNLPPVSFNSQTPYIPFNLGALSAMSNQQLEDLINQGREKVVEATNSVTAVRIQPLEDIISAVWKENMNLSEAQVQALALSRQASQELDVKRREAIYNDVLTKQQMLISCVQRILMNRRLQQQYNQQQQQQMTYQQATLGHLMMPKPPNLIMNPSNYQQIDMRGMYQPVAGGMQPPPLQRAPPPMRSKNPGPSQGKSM
UniProt O75820: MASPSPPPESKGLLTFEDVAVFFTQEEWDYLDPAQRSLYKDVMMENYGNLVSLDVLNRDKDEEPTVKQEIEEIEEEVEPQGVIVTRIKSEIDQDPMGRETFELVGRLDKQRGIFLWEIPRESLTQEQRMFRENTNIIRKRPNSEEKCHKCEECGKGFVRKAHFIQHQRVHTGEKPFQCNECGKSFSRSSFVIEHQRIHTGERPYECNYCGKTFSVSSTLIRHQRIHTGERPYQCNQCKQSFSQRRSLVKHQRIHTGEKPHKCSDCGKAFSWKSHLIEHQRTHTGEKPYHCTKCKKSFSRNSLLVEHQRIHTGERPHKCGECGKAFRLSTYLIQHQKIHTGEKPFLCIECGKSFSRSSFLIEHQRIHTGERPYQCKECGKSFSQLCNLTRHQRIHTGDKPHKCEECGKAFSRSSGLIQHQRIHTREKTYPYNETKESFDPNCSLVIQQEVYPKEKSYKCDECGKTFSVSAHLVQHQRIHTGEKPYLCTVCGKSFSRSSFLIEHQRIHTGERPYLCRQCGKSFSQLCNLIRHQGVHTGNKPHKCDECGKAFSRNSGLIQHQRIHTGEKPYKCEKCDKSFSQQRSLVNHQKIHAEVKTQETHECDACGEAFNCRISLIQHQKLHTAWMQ
UniProt P17844: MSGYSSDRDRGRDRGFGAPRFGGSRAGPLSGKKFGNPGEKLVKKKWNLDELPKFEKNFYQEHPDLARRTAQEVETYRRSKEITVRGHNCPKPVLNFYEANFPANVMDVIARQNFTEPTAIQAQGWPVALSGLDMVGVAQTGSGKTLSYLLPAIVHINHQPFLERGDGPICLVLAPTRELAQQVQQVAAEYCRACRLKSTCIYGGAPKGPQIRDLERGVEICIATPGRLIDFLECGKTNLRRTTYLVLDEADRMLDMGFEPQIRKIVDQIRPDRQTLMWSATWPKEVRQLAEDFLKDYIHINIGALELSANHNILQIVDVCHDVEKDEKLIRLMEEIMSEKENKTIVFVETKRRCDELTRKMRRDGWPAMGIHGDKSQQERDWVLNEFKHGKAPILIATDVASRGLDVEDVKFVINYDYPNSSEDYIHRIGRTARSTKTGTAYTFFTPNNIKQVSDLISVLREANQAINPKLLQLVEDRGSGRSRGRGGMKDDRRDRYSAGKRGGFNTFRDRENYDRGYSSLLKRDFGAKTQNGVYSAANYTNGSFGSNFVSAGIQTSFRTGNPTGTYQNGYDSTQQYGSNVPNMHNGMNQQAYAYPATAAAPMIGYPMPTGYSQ
UniProt Q13123: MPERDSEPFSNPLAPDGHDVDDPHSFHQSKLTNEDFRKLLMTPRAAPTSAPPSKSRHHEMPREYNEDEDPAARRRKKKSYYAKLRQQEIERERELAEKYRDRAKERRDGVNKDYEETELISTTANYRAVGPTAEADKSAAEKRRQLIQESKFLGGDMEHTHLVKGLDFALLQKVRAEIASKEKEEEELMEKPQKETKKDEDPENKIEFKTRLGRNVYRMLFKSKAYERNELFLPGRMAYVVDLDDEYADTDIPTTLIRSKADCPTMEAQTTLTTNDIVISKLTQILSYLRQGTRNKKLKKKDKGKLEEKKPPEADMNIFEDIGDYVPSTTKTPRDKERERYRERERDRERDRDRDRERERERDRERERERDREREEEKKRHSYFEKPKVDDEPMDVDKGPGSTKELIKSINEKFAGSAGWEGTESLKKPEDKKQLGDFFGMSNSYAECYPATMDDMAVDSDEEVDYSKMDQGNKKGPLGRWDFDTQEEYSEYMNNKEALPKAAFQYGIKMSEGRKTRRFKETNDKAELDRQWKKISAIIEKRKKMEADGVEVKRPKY
UniProt Q96EZ8: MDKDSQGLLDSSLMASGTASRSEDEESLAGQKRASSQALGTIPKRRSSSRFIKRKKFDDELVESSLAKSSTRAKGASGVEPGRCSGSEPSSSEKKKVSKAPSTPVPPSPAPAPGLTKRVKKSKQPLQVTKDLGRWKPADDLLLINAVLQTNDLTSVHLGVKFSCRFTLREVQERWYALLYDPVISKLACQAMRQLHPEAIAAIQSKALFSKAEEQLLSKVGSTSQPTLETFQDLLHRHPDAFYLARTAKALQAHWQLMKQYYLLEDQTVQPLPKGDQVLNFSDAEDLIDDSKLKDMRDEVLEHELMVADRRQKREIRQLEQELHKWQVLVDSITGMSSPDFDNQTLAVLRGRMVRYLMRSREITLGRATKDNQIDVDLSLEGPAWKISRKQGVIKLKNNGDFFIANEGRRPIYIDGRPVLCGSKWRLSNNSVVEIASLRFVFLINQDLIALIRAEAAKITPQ
UniProt O43707: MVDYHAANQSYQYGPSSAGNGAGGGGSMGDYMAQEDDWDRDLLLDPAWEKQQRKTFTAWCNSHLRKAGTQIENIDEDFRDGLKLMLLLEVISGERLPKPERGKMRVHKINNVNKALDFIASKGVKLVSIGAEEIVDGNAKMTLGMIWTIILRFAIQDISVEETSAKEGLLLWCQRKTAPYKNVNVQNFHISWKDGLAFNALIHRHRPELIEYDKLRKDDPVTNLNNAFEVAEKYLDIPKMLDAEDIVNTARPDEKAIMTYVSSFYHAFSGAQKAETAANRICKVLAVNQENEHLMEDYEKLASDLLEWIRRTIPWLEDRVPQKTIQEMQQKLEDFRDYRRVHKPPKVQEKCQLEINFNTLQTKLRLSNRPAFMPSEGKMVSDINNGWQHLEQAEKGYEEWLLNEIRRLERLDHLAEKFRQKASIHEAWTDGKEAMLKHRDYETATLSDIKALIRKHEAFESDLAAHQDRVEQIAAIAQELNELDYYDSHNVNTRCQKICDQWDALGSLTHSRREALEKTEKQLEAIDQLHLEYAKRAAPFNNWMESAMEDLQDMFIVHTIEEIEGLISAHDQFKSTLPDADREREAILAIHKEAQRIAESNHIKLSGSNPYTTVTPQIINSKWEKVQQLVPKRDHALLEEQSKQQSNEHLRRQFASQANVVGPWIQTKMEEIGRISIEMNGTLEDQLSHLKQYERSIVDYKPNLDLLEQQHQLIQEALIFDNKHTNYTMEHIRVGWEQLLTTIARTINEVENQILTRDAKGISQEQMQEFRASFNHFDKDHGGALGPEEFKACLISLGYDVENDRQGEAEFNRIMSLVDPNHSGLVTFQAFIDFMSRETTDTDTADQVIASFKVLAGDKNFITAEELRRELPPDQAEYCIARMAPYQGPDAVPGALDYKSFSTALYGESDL

T1: Gal4-DBD-delta (1-27) ALEX1, bait lacking the N-terminal transmembrane domain (amino acid numbers 1 to 27) (human) (UniProt Q9P291)
T1 sequence: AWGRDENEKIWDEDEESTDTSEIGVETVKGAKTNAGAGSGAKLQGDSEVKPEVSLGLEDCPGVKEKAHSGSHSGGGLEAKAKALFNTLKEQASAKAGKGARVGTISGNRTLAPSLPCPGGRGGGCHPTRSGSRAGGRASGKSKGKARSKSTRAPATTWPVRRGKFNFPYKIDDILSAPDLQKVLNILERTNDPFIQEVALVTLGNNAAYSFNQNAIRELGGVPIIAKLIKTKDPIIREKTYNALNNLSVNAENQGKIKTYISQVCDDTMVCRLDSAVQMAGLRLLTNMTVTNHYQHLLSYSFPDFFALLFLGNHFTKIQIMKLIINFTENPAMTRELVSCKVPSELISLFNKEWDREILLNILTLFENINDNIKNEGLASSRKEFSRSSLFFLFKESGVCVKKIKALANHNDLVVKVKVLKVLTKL

B1: KIAA1221, prey clones from the human brain cDNA library in pACT2 (protein, UniProt Q9H582 1-1327, looked up, not shown: large carriers)
chain: MRSFLQQDVNKTKSRLNVLNGLANNMDDLKINTDITGAKEELLDDNNFISDKESGVHKPKDCQTSFQKNNTLTLPEELSKDKSENALSGGQSSLFIHAGAPTVSSENFILPKGAAVNGPVSHSSLTKTSNMNKGSVSLTTGQPVDQPTTESCSTLKVAADLQLSTPQKASQHQVLFLLSDVAHAKNPTHSNKKLPTSASVGCDIQNSVGSNIKSDGTLINQVEVGEDGEDLLVKDDCVNTVTGISSGTDGFRSENDTNWDPQKEFIQFLMTNEETVDKAPPHSKIGLEKKRKRKMDVSKITRYTEDCFSDSNCVPNKSKMQEVDFLEQNEELQAVDSQKYALSKVKPESTDEDLESVDAFQHLIYNPDKCGEESSPVHTSTFLSNTLKKKCEESDSESPATFSTEEPSFYPCTKCNVNFREKKHLHRHMMYHLDGNSHFRHLNVPRPYACRECGRTFRDRNSLLKHMIIHQERRQKLMEEIRELKELQDEGRSARLQCPQCVFGTNCPKTFVQHAKTHEKDKRYYCCEECNFMAVTENELECHRGIAHGAVVKCPMVTSDIAQRKTQKKTFMKDSVVGSSKKSATYICKMCPFTTSAKSVLKKHTEYLHSSSCVDSFGSPLGLDKRKNDILEEPVDSDSTKTLTKQQSTTFPKNSALKQDVKRTFGSTSQSSSFSKIHKRPHRIQKARKSIAQSGVNMCNQNSSPHKNVTIKSSVDQKPKYFHQAAKEKSNAKANSHYLYRHKYENYRMIKKSGESYPVHFKKEEASSLNSLHLFSSSSNSHNNFISDPHKPDAKRPESFKDHRRVAVKRVIKESKKESSVGGEDLDSYPDFLHKMTVVVLQKLNSAEKKDSYETEDESSWDNVELGDYTTQAIEDETYSDINQEHVNLFPLFKSKVEGQEPGENATLSYDQNDGFYFEYYEDTGSNNFLHEIHDPQHLETADASLSKHSSVFHWTDLSLEKKSCPYCPATFETGVGLSNHVRGHLHRAGLSYEARHVVSPEQIATSDKMQHFKRTGTGTPVKRVRKAIEKSETTSEHTCQLCGGWFDTKIGLSNHVRGHLKRLGKTKWDAHKSPICVLNEMMQNEEKYEKILKALNSRRIIPRPFVAQKLASSDDFISQNVIPLEAYRNGLKTEALSVSASEEEGLNFLNEYDETKPELPSGKKNQSLTLIELLKNKRMGEERNSAISPQKIHNQTARKRFVQKCVLPLNEDSPLMYQPQKMDLTMHSALDCKQKKSRSRSGSKKKMLTLPHGADEVYILRCRFCGLVFRGPLSVQEDWIKHLQRHIVNANLPRTGAGMVEVTSLLKKPASITETSFSLLMAEAAS
B2: ALEX1, prey clones from the human brain cDNA library in pACT2 (homodimer formation) (protein, not shown: large carriers)
chain: MGRTREAGCVAAGVVIGAGACYCVYRLAWGRDENEKIWDEDEESTDTSEIGVETVKGAKTNAGAGSGAKLQGDSEVKPEVSLGLEDCPGVKEKAHSGSHSGGGLEAKAKALFNTLKEQASAKAGKGARVGTISGNRTLAPSLPCPGGRGGGCHPTRSGSRAGGRASGKSKGKARSKSTRAPATTWPVRRGKFNFPYKIDDILSAPDLQKVLNILERTNDPFIQEVALVTLGNNAAYSFNQNAIRELGGVPIIAKLIKTKDPIIREKTYNALNNLSVNAENQGKIKTYISQVCDDTMVCRLDSAVQMAGLRLLTNMTVTNHYQHLLSYSFPDFFALLFLGNHFTKIQIMKLIINFTENPAMTRELVSCKVPSELISLFNKEWDREILLNILTLFENINDNIKNEGLASSRKEFSRSSLFFLFKESGVCVKKIKALANHNDLVVKVKVLKVLTKL
B3: SART-1, prey clones from the human brain cDNA library in pACT2 (protein, UniProt O43290 1-800, looked up, not shown: large carriers)
chain: MGSSKKHRGEKEAAGTTAAAGTGGATEQPPRHREHKKHKHRSGGSGGSGGERRKRSRERGGERGSGRRGAEAEARSSTHGRERSQAEPSERRVKREKRDDGYEAAASSKTSSGDASSLSIEETNKLRAKLGLKPLEVNAIKKEAGTKEEPVTADVINPMALRQREELREKLAAAKEKRLLNQKLGKIKTLGEDDPWLDDTAAWIERSRQLQKEKDLAEKRAKLLEEMDQEFGVSTLVEEEFGQRRQDLYSARDLQGLTVEHAIDSFREGETMILTLKDKGVLQEEEDVLVNVNLVDKERAEKNVELRKKKPDYLPYAEDESVDDLAQQKPRSILSKYDEELEGERPHSFRLEQGGTADGLRERELEEIRAKLRLQAQSLSTVGPRLASEYLTPEEMVTFKKTKRRVKKIRKKEKEVVVRADDLLPLGDQTQDGDFGSRLRGRGRRRVSEVEEEKEPVPQPLPSDDTRVENMDISDEEEGGAPPPGSPQVLEEDEAELELQKQLEKGRRLRQLQQLQQLRDSGEKVVEIVKKLESRQRGWEEDEDPERKGAIVFNATSEFCRTLGEIPTYGLAGNREEQEELMDFERDEERSANGGSESDGEENIGWSTVNLDEEKQQQDFSASSTTILDEEPIVNRGLAAALLLCQNKGLLETTVQKVARVKAPNKSLPSAVYCIEDKMAIDDKYSRREEYRGFTQDFKEKDGYKPDVKIEYVDETGRKLTPKEAFRQLSHRFHGKGSGKMKTERRMKKLDEEALLKKMSSSDTPLGTVALLQEKQKAQKTPYIVLSGSGKSMNANTITK

molecular target: Gal4-DB fused to full-length ALEX1, bait in pODB-80 (human); assay: yeast two-hybrid screen, full-length ALEX1 as bait

binding, binds:
JIP-1 clone of amino acid numbers 160 to 711, prey from the human brain cDNA library (from UniProt Q9UQF2 160-711)
JIP-1 clone of amino acid numbers 258 to 711, the smallest JIP-1 clone (19A3) (from UniProt Q9UQF2 258-711)
JIP-1 clone of amino acid numbers 199 to 711, prey from the human brain cDNA library (from UniProt Q9UQF2 199-711)

molecular target: Gal4-DB fused to full-length ALEX1, bait in pODB-80 (human); assay: yeast two-hybrid, growth of yeast carrying pODB-80-ALEX1

binding, binds:
JIP-1 fragment comprising amino acid numbers 262 to 589 (from UniProt Q9UQF2 262-589)
JIP-1 fragment of amino acid numbers 374 to 711 (from UniProt Q9UQF2 374-711)

molecular target: Gal4-DB fused to full-length ALEX1, bait in pODB-80 (human); assay: yeast two-hybrid, growth on -Leu-Trp-His plate with 1 mM 3-AT

binding, binds:
JIP-1 clone of amino acid numbers 258 to 711, the smallest JIP-1 clone (19A3) (from UniProt Q9UQF2 258-711)

molecular target: T1, Gal4-DBD-delta (1-27) ALEX1, bait lacking the N-terminal transmembrane domain (amino acid numbers 1 to 27) (human); assay: yeast two-hybrid screen with Gal4-DBD-delta (1-27) ALEX1 as bait; listed among those that passed all tests

binding, binds:
B1
B2
B3

molecular target: T1, Gal4-DBD-delta (1-27) ALEX1, bait lacking the N-terminal transmembrane domain (amino acid numbers 1 to 27) (human); assay: as above; remark: another data set of the same source

binding, binds:
ATRX, prey clones from the human brain cDNA library in pACT2 (from UniProt P46100 1-2492)
ZNF189, prey clones from the human brain cDNA library in pACT2 (from UniProt O75820 1-626)
p68 (RNA helicase/ATPase), prey clones from the human brain cDNA library in pACT2 (from UniProt P17844 1-614)
CSA2 (RED protein), prey clones from the human brain cDNA library in pACT2 (from UniProt Q13123 1-557)
MSP58, prey clones from the human brain cDNA library in pACT2 (from UniProt Q96EZ8 1-462)
α-Actinin4, prey clones from the human brain cDNA library in pACT2 (from UniProt O43707 1-911)
